Data published in publication PMC7359024, “Synthesis, Structure–Activity Relationship, and Mechanistic Studies of Aminoquinazolinones Displaying Antimycobacterial Activity” (ACS Infectious Diseases, 2020).

What follows are compounds tested on Chinese Hamster Ovarian (CHO) cell lines. Details: not given.

SMILES	SI (safety index)
CS(=O)(=O)c1cccc(-c2ccc3nc(N)n(-c4ccc(C(F)(F)F)cc4)c(=O)c3c2)c1 [compound 1, 2-Amino-6-(3-(methylsulfonyl)phenyl)-3-(4-(trifluoromethyl)phenyl)quinazolin-4(3H)-one]	>100 (>400x)

Same assay, conditions: CHO IC50 versus MIC90 GASTE-Fe

SMILES	SI (safety index)
Nc1nc2ccc(-c3cccnc3)cc2c(=O)n1-c1ccc(C(F)(F)F)cc1 [compound 22]	> 160 x
CNC(=O)c1cccc(-c2ccc3nc(N)n(-c4ccc(C(F)(F)F)cc4)c(=O)c3c2)c1 [compound 11]	123 x
CN(C)C(=O)c1cccc(-c2ccc3nc(N)n(-c4ccc(C(F)(F)F)cc4)c(=O)c3c2)c1 [compound 10]	0.3 x
Nc1nc2ccc(-c3cccc(C(=O)NCCN4CCOCC4)c3)cc2c(=O)n1-c1ccc(C(F)(F)F)cc1 [compound 15, 3-(2-amino-4-oxo-3-(4-(trifluoromethyl)phenyl)-3,4-dihydroquinazolin-6-yl)-N-(2-morpholinoethyl)benzamide]	6 x
C[S+]([O-])c1cccc(-c2ccc3nc(N)n(-c4ccc(C(F)(F)F)cc4)c(=O)c3c2)c1 (stereo not shown) [compound 2, 2-Amino-6-(3-(methylsulfinyl)phenyl)-3-(4-(trifluoromethyl)phenyl)quinazolin-4(3H)-one]	> 156 x
NC(=O)c1cccc(-c2ccc3nc(N)n(-c4ccc(C(F)(F)F)cc4)c(=O)c3c2)c1 [compound 9]	> 400 x
CN1CCN(C(=O)c2cccc(-c3ccc4nc(N)n(-c5ccc(C(F)(F)F)cc5)c(=O)c4c3)c2)CC1 [compound 19]	32 x
CNc1nc2ccc(-c3cccc([S+](C)[O-])c3)cc2c(=O)n1-c1ccc(C(F)(F)F)cc1 (stereo not shown) [compound 40, 2-(Methylamino)-6-(3-(methylsulfinyl)phenyl)-3-(4-(trifluoromethyl)phenyl)quinazolin-4(3H)-one]	> 36 x
Nc1nc2ccc(-c3cccc(S(=O)(=O)C4CC4)c3)cc2c(=O)n1-c1ccc(C(F)(F)F)cc1 [compound 8]	0.01 x
C[S+]([O-])c1cccc(-c2ccc3c(=O)n(-c4ccc(C(F)(F)F)cc4)c(N)nc3c2)c1 (stereo not shown) [compound 31]	> 38 x
CS(=O)(=O)c1cccc(-c2ccc3c(=O)n(-c4ccc(C(F)(F)F)cc4)c(N)nc3c2)c1 [compound 30]	> 36 x
Nc1nc2ccc(-c3cccc(C(=O)O)c3)cc2c(=O)n1-c1ccc(C(F)(F)F)cc1 [compound 20]	1 x
CN(C)CCNC(=O)c1cccc(-c2ccc3nc(N)n(-c4ccc(C(F)(F)F)cc4)c(=O)c3c2)c1 [compound 13]	> 61 x
Nc1nc2ccc(-c3cccc(C(=O)NCCO)c3)cc2c(=O)n1-c1ccc(C(F)(F)F)cc1 [compound 14]	> 49 x
CNc1nc2ccc(-c3cccc(S(C)(=O)=O)c3)cc2c(=O)n1-c1ccc(C(F)(F)F)cc1 [compound 41, 2-(Methylamino)-6-(3-(methylsulfonyl)phenyl)-3-(4-(trifluoromethyl)phenyl)quinazolin-4(3H)-one]	> 0.4 x
Nc1nc2ccc(-c3cccc(C(=O)N4CCSCC4)c3)cc2c(=O)n1-c1ccc(C(F)(F)F)cc1 [compound 18, 2-Amino-6-(3-(thiomorpholine-4-carbonyl)phenyl)-3-(4-(trifluoromethyl)phenyl)quinazolin-4(3H)-one]	> 76 x
Cc1ccc(S(C)(=O)=O)cc1-c1ccc2nc(N)n(-c3ccc(C(F)(F)F)cc3)c(=O)c2c1 [compound 7]	> 24 x
Nc1nc2cc(-c3cccc(C(F)(F)F)c3)ccc2c(=O)n1-c1ccc(C(F)(F)F)cc1 [compound 32]	> 63 x
